# Earlier results, collected in patent US20130137664A1, “LOW-DOSED SOLID ORAL DOSAGE FORMS FOR HRT” (BAYER INTELLECTUAL PROPERTY GMBH, priority 2010, published 2013).
# Where two headings read alike, the source gives them in different places. At least one structure is not confirmed: it was looked up by name or label, or the drawing left a doubt.
# Test system: moderate or severe hot flushes in menopausal women
structure (smiles),measurement,setting,value
"C[C@]12CC[C@@H]3c4ccc(O)cc4CC[C@H]3[C@@H]1CC[C@@H]2O [E2, estradiol]",symptom relief in women with moderate to severe vasomotor symptoms,0.25 mg E2,ineffective
same,symptom relief in women with moderate to severe vasomotor symptoms,0.5 mg E2,require more time
same,symptom relief in women with moderate to severe vasomotor symptoms,2 mg E2,effective
same,relationship between the E2 dose and reduction in vasomotor symptoms,"0.25 to 2 mg E2, number of moderate to severe hot flushes and hot flush weekly weighted score",significant linear dose-response relationship
same,decreases in the number of hot flushes and the hot flush weekly weighted score compared with placebo,"0.5-, 1-, and 2-mg groups, end of the 12-week treatment period, oral",significantly greater
same,significance compared to the placebo group at week 4,"only the 1- and 2-mg groups, week 4, oral",showed significance
